Measurements reported in the supplement of paper PMC8616043.
Where a name gives a salt, the structure may show the parent alone. This is one part of the list. This data set is noisy: repeats of one test often differ as much as different tests do.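 Human U-2 OS cells stably expressing a GFP sensor with a nuclear import signal and classical export signal were transfected to produce PR50, a 50-repeat proline–arginine dipeptide from ALS/FTD gene C9ORF72. Nuclear-minus-cytoplasm GFP was scaled from DMSO (low) to PR-only (high), scored against plate test wells; strongly negative scores marked PR-reversing hits.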

tested on: U-2 OS NCT-C biosensor cells expressing PR50; assay: Z-score of normalised NCT-C biosensor translocation index in PR50-expressing cells; higher = more nuclear biosensor (more disrupted nuclear export); conditions: 3 µM; 24 h

Row | Compound | Z-score
1 | CN1CC[C@]2(CCN3CCc4c(oc5ccccc45)[C@@H]3C2)N(C)C1=O | inactive: -0.545
2 | N#CC(C#N)=Cc1ccc(O)c(O)c1 [Tyrphostin 23] | inactive: -0.134
3 | N=C(NCCC[C@H](N)C(=O)O)N[N+](=O)[O-] [NG-Nitro-L- arginine] | inactive: -0.362
4 | O=c1c2ccccc2[se]n1-c1ccccc1 [Ebselen] | inactive: -1.19
5 | CCCN(CCC)C1Cc2cc(OC)c(OC)cc2C1 | inactive: 0.249
6 | COC(=O)N1CCN(C(=O)Cc2ccc(Cl)c(Cl)c2)C(CN2CCCC2)C1 (centres undefined) | inactive: -1.17
7 | COc1c2c(cc3c1OCO3)CCN(C)C2 [Hydrocotarnine HBr] | inactive: -0.281
8 | CCCCCCCCCCCCCC(=O)O[C@@H]1[C@@H](C)[C@@]2(O)[C@@H](C=C(CO)C[C@@]3(O)C(=O)C(C)=C[C@@H]23)[C@@H]2C(C)(C)[C@]12OC(C)=O [4α-Phorbol 12-myristate 13-acetate] | inactive: 0.838
9 | COc1cc(=O)oc(/C=C/C=C/C=C/C(C)=C/[C@@]2(C)O[C@H](C)[C@](C)(O)[C@H]2O)c1C [Citreoviridin] | inactive: -0.351
10 | COC(=O)[C@@H](N)CCCNC(=N)N[N+](=O)[O-] [NG-Nitro-L-arginine methyl ester HCl] | inactive: -0.682
11 | CN1Cc2c(ccc3c2OCO3)[C@@H]2[C@H]1c1cc3c(cc1C[C@@H]2O)OCO3 [(+)-Chelidonine] | inactive: 0.276
12 | CC(=O)O[C@H]1C[C@@H]2CC[C@@H]3[C@H](CC[C@@]4(C)[C@H]3C[C@H]([N+]3(C)CCCCC3)[C@@H]4OC(C)=O)[C@@]2(C)C[C@@H]1[N+]1(C)CCCCC1 [Pancuronium bromide] | inactive: 0.302
13 | C[C@]12CC[C@H](O)C[C@H]1CC[C@@H]1[C@@H]2CC[C@]2(C)[C@@H](C3=CC(=O)OC3)[C@@H](O)C[C@]12O [Gitoxigenin] | inactive: 0.528
14 | CO[C@H]1[C@@H](O)[C@@H](C)O[C@H](O[C@H]2[C@H](Oc3cccc4c(O)c5c(=O)oc6ccc(C)c7c(=O)oc(c34)c5c67)O[C@H](C)[C@H](O)[C@@H]2O)[C@@H]1O [Chartreusin] | inactive: -0.0666
15 | O=C1CC[C@@]2(O)[C@H]3Cc4ccc(O)c5c4[C@@]2(CCN3CC2CC2)[C@H]1O5 [Naltrexone·HCl] | inactive: 1.41
16 | O=C1CC[C@@]2(O)[C@H]3Cc4ccc(O)c5c4[C@@]2(CCN3CC2CC2)[C@H]1O5 [Naltrexone hydrochloride] | inactive: 0.038
17 | CC1=C2C(=O)[C@H]3[C@@H](CC=C4C[C@@H](O)CC[C@@]43C)[C@@H]2CC[C@]12O[C@@H]1C[C@H](C)CN[C@H]1[C@H]2C [Jervine] | inactive: -1.03
18 | COc1ccc2c(c1O)-c1c(OC)c(OC)cc3c1[C@H](C2)N(C)CC3 [(+)-Isocorydine hydrochloride] | inactive: -0.0963
19 | CN1CCN(C(=O)O[C@H]2c3nccnc3C(=O)N2c2ccc(Cl)cn2)CC1 [Eszopiclone] | inactive: 0.724
20 | CC(=O)O[C@H]1[C@H]2[C@@H](OC(=O)Cc3ccccc3)[C@@H](C)C[C@]2(OC(C)=O)C(=O)/C(C)=C/[C@@H]2[C@H](CC[C@@]13CO3)C2(C)C [Euphorbiasteroid] | inactive: -0.427
21 | C[C@@H]1Cc2c(Cl)cc(C(=O)N[C@@H](Cc3ccccc3)C(=O)O)c(O)c2C(=O)O1 [Ochratoxin A] | inactive: 0.0921
22 | Cn1c(CCCC(=O)O)nc2cc(N(CCCl)CCCl)ccc21 [Bendamustine hydrochloride] | inactive: -0.0177

Given as comma-separated lines: entries from further up.
Row,Compound,Z-score
9,COc1cc(=O)oc(/C=C/C=C/C=C/C(C)=C/[C@@]2(C)O[C@H](C)[C@](C)(O)[C@H]2O)c1C [Citreoviridin],inactive: -0.351
10,COC(=O)[C@@H](N)CCCNC(=N)N[N+](=O)[O-] [NG-Nitro-L-arginine methyl ester HCl],inactive: -0.682
11,CN1Cc2c(ccc3c2OCO3)[C@@H]2[C@H]1c1cc3c(cc1C[C@@H]2O)OCO3 [(+)-Chelidonine],inactive: 0.276
12,CC(=O)O[C@H]1C[C@@H]2CC[C@@H]3[C@H](CC[C@@]4(C)[C@H]3C[C@H]([N+]3(C)CCCCC3)[C@@H]4OC(C)=O)[C@@]2(C)C[C@@H]1[N+]1(C)CCCCC1 [Pancuronium bromide],inactive: 0.302
13,C[C@]12CC[C@H](O)C[C@H]1CC[C@@H]1[C@@H]2CC[C@]2(C)[C@@H](C3=CC(=O)OC3)[C@@H](O)C[C@]12O [Gitoxigenin],inactive: 0.528
14,CO[C@H]1[C@@H](O)[C@@H](C)O[C@H](O[C@H]2[C@H](Oc3cccc4c(O)c5c(=O)oc6ccc(C)c7c(=O)oc(c34)c5c67)O[C@H](C)[C@H](O)[C@@H]2O)[C@@H]1O [Chartreusin],inactive: -0.0666
15,O=C1CC[C@@]2(O)[C@H]3Cc4ccc(O)c5c4[C@@]2(CCN3CC2CC2)[C@H]1O5 [Naltrexone·HCl],inactive: 1.41
16,O=C1CC[C@@]2(O)[C@H]3Cc4ccc(O)c5c4[C@@]2(CCN3CC2CC2)[C@H]1O5 [Naltrexone hydrochloride],inactive: 0.038
17,CC1=C2C(=O)[C@H]3[C@@H](CC=C4C[C@@H](O)CC[C@@]43C)[C@@H]2CC[C@]12O[C@@H]1C[C@H](C)CN[C@H]1[C@H]2C [Jervine],inactive: -1.03
18,COc1ccc2c(c1O)-c1c(OC)c(OC)cc3c1[C@H](C2)N(C)CC3 [(+)-Isocorydine hydrochloride],inactive: -0.0963
19,CN1CCN(C(=O)O[C@H]2c3nccnc3C(=O)N2c2ccc(Cl)cn2)CC1 [Eszopiclone],inactive: 0.724
20,CC(=O)O[C@H]1[C@H]2[C@@H](OC(=O)Cc3ccccc3)[C@@H](C)C[C@]2(OC(C)=O)C(=O)/C(C)=C/[C@@H]2[C@H](CC[C@@]13CO3)C2(C)C [Euphorbiasteroid],inactive: -0.427
21,C[C@@H]1Cc2c(Cl)cc(C(=O)N[C@@H](Cc3ccccc3)C(=O)O)c(O)c2C(=O)O1 [Ochratoxin A],inactive: 0.0921

Remaining list, next part

Row | Compound | Z-score
23 | Cn1c(CCCC(=O)O)nc2cc(N(CCCl)CCCl)ccc21 [Bendamustine·HCl] | inactive: 0.108
24 | Oc1ccc2c3c1O[C@H]1c4[nH]c5ccccc5c4C[C@@]4(O)[C@@H](C2)N(CC2CC2)CC[C@]314 [Naltrindole hydrochloride] | inactive: 0.0568
25 | CC(NC(C)(C)C)C(=O)c1cccc(Cl)c1 (centres undefined) [Bupropion hydrochloride] | inactive: 1.86
26 | CC(NC(C)(C)C)C(=O)c1cccc(Cl)c1 (centres undefined) [Bupropion] | inactive: -0.075
27 | COc1cc2c(c(OC)c1OC)-c1ccc(SC)c(=O)cc1[C@@H](NC(C)=O)CC2 [Thiocolchicine] | inactive: 0.0649
28 | N[C@]1(C(=O)O)CC[C@H](C(=O)O)C1 (racemic) [trans-(±)-ACPD] | inactive: 1.04
29 | CCOC(=O)CC(SP(=S)(OC)OC)C(=O)OCC (centres undefined) [Malathion] | inactive: 0.0256
30 | CN1CC[C@@]2(C)c3cc(O)ccc3N(C)C12 (single isomer, unassigned; (-)) [(-)-Eseroline fumarate] | inactive: -0.14
31 | NCC(CC(=O)O)c1ccc(Cl)cc1 (centres undefined) [Baclofen] | inactive: -0.241
32 | CCN1C[C@]2(C)CC[C@H](O)[C@]34C1[C@@H](C[C@H]23)[C@@]1(O)C[C@H](OC)[C@H]2C[C@@H]4[C@@H]1[C@H]2O [Karakoline] | inactive: -0.0674
33 | CC(=O)[C@H]1CC[C@H]2[C@@H]3CC[C@H]4C[C@H](O)CC[C@]4(C)[C@H]3CC[C@]12C [5alpha-Pregnan- 3alpha-ol-20-one] | inactive: -0.394
34 | CN(C)CCc1ccc(O)cc1 [Hordenine sulfate] | inactive: 0.432
35 | COC1=C[C@@H]2[C@@H]3Cc4ccc(OC)c(O)c4[C@]2(CCN3C)CC1=O [Sinomenine] | inactive: -0.107
36 | CN1[C@@H]2C[C@@H](OC(=O)[C@H](CO)c3ccccc3)C[C@H]1[C@@H]1O[C@@H]12 [(-)-Scopolamine hydrobromide] | inactive: -0.689
37 | CN1[C@@H]2C[C@@H](OC(=O)[C@H](CO)c3ccccc3)C[C@H]1[C@@H]1O[C@@H]12 [Scopolamine·HBr] | inactive: 0.282
38 | O[C@H]1[C@H](O)[C@@H](O)CN2CC[C@H](O)[C@H]12 [Castanospermine] | inactive: -1.16
39 | Cc1sc2c(c1C)C(c1ccc(Cl)cc1)=N[C@@H](CC(N)=O)c1nnc(C)n1-2 | inactive: -0.619
40 | CN1C[C@H](C(=O)N[C@]2(C)O[C@@]3(O)[C@@H]4CCCN4C(=O)[C@H](Cc4ccccc4)N3C2=O)C=C2c3cccc4[nH]cc(c34)C[C@H]21 [Ergotamine Tartrate] | inactive: -0.234
41 | N[C@@H]1C[C@H]1c1ccccc1 [Tranylcypromine hydrochloride] | inactive: 1.2
42 | COc1cc(C(=O)OC2CC3CCC(C2)N3C)ccc1O (centres undefined) [Fillalbin] | inactive: -0.904
43 | NCC(CC(=O)O)c1ccc(Cl)cc1 (racemic) [(±)-Baclofen] | inactive: 2.47
44 | C[C@H]1CC[C@@H]2[C@@H](C)[C@H]3[C@H](C[C@H]4[C@@H]5CC[C@H]6C[C@@H](O)CC[C@]6(C)[C@H]5CC[C@]34C)N2C1 [Demissidine] | inactive: 0.499
